{"source": "PubChem BioAssay AID686937, Drosophila RNAi Screening Center – 2013", "test": "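Genes in the fly needed for secretion of protein constitutively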 (primary screen)", "system": "Drosophila S2 cells expressing secreted horseradish peroxidase", "reagent": "long dsRNA against Drosophila genes", "time to read-out": "about 5.5 days (5 days dsRNA, then 12 h reporter induction)", "treatment": "reporter expression induced after 5 days of dsRNA, read 12 h later; inducer not stated", "measured": "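After 5 days of dsRNA and 12 h of reporter induction, medium peroxidase read by chemiluminescence and scored as per-plate z-score; higher values mean more reporter released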", "direction": "z-score: higher = more reporter secreted into medium", "note": "The deposit covers about 23,000 reagents; this is an unselected part of those that have a named target and a result. 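Reduced-secretion tags in replicate 1 do not always agree with the z-scores; no criterion for assigning the tags was given.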 Reagents against one gene are numbered here. A plus sign joins genes that one reagent is predicted to hit. Further read-outs or replicates are left out here. Not given: the amount of reagent."}
{"gene": "Dd (Dullard)", "dsRNA no.": 1, "z-score, replicate 1": 0.22}
{"gene": "CG8046", "dsRNA no.": 1, "z-score, replicate 1": 0.39}
{"gene": "Mo25", "dsRNA no.": 1, "z-score, replicate 1": -1.72, "phenotype, replicate 1": "reduced secretion"}
{"gene": "GILT1 (Gamma-interferon-inducible lysosomal thiol reductase 1)", "dsRNA no.": 1, "z-score, replicate 1": 0.16}
{"gene": "Syt1 (Synaptotagmin 1)", "dsRNA no.": 1, "z-score, replicate 1": 0.21}
{"gene": "Syt1 (Synaptotagmin 1)", "dsRNA no.": 2, "z-score, replicate 1": 0.55}
{"gene": "Syt1 (Synaptotagmin 1)", "dsRNA no.": 3, "z-score, replicate 1": 0.26}
{"gene": "Syt1 (Synaptotagmin 1)", "dsRNA no.": 4, "z-score, replicate 1": 0.02}
{"gene": "Syt1 (Synaptotagmin 1)", "dsRNA no.": 5, "z-score, replicate 1": -0.3}
{"gene": "mms4 (Methyl methanesulfonate sensitivity 4)", "dsRNA no.": 1, "z-score, replicate 1": 0.39}
{"gene": "CG8399", "dsRNA no.": 1, "z-score, replicate 1": 0.29}
{"gene": "CG6357", "dsRNA no.": 1, "z-score, replicate 1": 0.27}
{"gene": "VhaAC39-1 (Vacuolar H[+] ATPase AC39 subunit 1)", "dsRNA no.": 1, "z-score, replicate 1": -0.54}

Ordered by “z-score, replicate 1” (lowest first): 4 of the entries above.
{"gene": "Syt1 (Synaptotagmin 1)", "dsRNA no.": 5, "z-score, replicate 1": -0.3}
{"gene": "Syt1 (Synaptotagmin 1)", "dsRNA no.": 4, "z-score, replicate 1": 0.02}
{"gene": "Syt1 (Synaptotagmin 1)", "dsRNA no.": 3, "z-score, replicate 1": 0.26}
{"gene": "Syt1 (Synaptotagmin 1)", "dsRNA no.": 2, "z-score, replicate 1": 0.55}

Further records follow.
{"gene": "rk (rickets)", "dsRNA no.": 1, "z-score, replicate 1": -0.22}
{"gene": "lncRNA:CR9284 (long non-coding RNA:CR9284)", "dsRNA no.": 1, "z-score, replicate 1": 0.56}
{"gene": "lncRNA:CR9284 (long non-coding RNA:CR9284)", "dsRNA no.": 2, "z-score, replicate 1": 0.21}
{"gene": "CG16898", "dsRNA no.": 1, "z-score, replicate 1": 0.23}
{"gene": "CG4617", "dsRNA no.": 1, "z-score, replicate 1": 0.28}
{"gene": "B-H2 (BarH2)", "dsRNA no.": 1, "z-score, replicate 1": -2.74, "phenotype, replicate 1": "reduced secretion"}
{"gene": "CG34357", "dsRNA no.": 1, "z-score, replicate 1": 0.22}
{"gene": "CG34357", "dsRNA no.": 2, "z-score, replicate 1": -0.28}
{"gene": "CG34357", "dsRNA no.": 3, "z-score, replicate 1": 0.21}
{"gene": "H2.0 (Homeodomain protein 2.0)", "dsRNA no.": 1, "z-score, replicate 1": 0.3}
{"gene": "H2.0 (Homeodomain protein 2.0)", "dsRNA no.": 2, "z-score, replicate 1": -0.85}
{"gene": "CG43174 (retired record)", "dsRNA no.": 1, "z-score, replicate 1": 0.27}
{"gene": "CG15765", "dsRNA no.": 1, "z-score, replicate 1": -1.13}
{"gene": "eco (Establishment of cohesion)", "dsRNA no.": 1, "z-score, replicate 1": -0.83}
{"gene": "cm + Inx7", "dsRNA no.": 1, "z-score, replicate 1": 0.27}
{"gene": "CG12128", "dsRNA no.": 1, "z-score, replicate 1": 0.4}
{"gene": "CG13039", "dsRNA no.": 1, "z-score, replicate 1": 0.39}
{"gene": "Spn42De (Serpin 42De)", "dsRNA no.": 1, "z-score, replicate 1": 0.12}
{"gene": "Fife", "dsRNA no.": 1, "z-score, replicate 1": 0.02}
{"gene": "Fife", "dsRNA no.": 2, "z-score, replicate 1": 0.1}
{"gene": "Fife", "dsRNA no.": 3, "z-score, replicate 1": 0.34}
{"gene": "CG14610 + asRNA:CR42738", "dsRNA no.": 1, "z-score, replicate 1": 0.18}
{"gene": "Sms (Spermine synthase)", "dsRNA no.": 1, "z-score, replicate 1": 0.22}
{"gene": "Aatf (Apoptosis antagonizing transcription factor)", "dsRNA no.": 1, "z-score, replicate 1": -0.29}
{"gene": "plh (pasang lhamu)", "dsRNA no.": 1, "z-score, replicate 1": 0.19}
{"gene": "mthl5 (methuselah-like 5)", "dsRNA no.": 1, "z-score, replicate 1": 0.25}
{"gene": "capt (capulet)", "dsRNA no.": 1, "z-score, replicate 1": 0.23}
{"gene": "capt (capulet)", "dsRNA no.": 2, "z-score, replicate 1": -0.44}
